These are yes or no findings as the source states them, for the method shown. Some entries that bind do so weakly or less than the wild type.
Legend:
[1] = biological target: synthetic NEFL head domain, wild-type (UniProt P07196); assay: turbidity (absorbance at 395 nm); synthetic NEFL head domain 5xD ChIM library, 100 μM LCD (n=3); both purified
[2] = biological target: synthetic NEFL head domain, wild-type (UniProt P07196); assay: SDS-PAGE (smearing from higher-order oligomers); SDS-PAGE characterization of the synthetic 5xD ChIM NEFL head domain library; both purified

B1: synthetic NEFL head domain, wild-type (domain or fragment, UniProt P07196 2-74)
chain: SSFSYEPYYSTSYKRRYVETPRVHISSVRCGYSTARSAYSSYSAPVSSSLSVRRSYSSSSGSLMPSLENLELS
**Q.** For B1, which binding [1] is on record?
**A.** binds

**Q.** And the binding [2]?
**A.** binds
